{"source": "PubChem BioAssay AID1259308 (NCATS, 2017)", "purpose": "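Genes whose loss raises luciferase production in HEK293 cells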 (primary screen)", "cell system": "human HEK293 embryonic kidney cells stably expressing firefly luciferase (HEK-CMV-Luc2-Hygro)", "knock-down reagent": "single siRNA against human genes, 0.8 pmol siRNA per well", "time to read-out": "72 h", "read-out": "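Luciferase light (ONE-Glo) measured on one replicate plate set and viability (CellTiter-Glo) on the other, scaled to a negative control siRNA, with robust z-scores and luciferase per cell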", "reading the numbers": "total luciferase, z-score: higher = more reporter protein produced", "call rule": "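Active when the median/MAD z-score for overall luciferase is greater than 3; a gene was taken forward for validation with new siRNAs if at least two of its three siRNAs passed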", "meaning of the calls": "active = raised luciferase; inactive = no rise", "note": "The deposit covers about 59,000 reagents; below is a random part of them. About 1,510 of them (2.6%) were called active. 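Calls use total luciferase alone and ignore viability, so some active siRNAs may act by altering cell number.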 Unmarked entries are inactive. The numbers tell different reagents against one gene apart. Not all columns of the deposit are shown."}
{"target": "SLC1A6", "siRNA no.": 1, "total luciferase, z-score": 0.573}
{"target": "SLC1A6", "siRNA no.": 2, "total luciferase, z-score": -0.348}
{"target": "SLC1A6", "siRNA no.": 3, "total luciferase, z-score": -2.51}
{"target": "PAX7", "siRNA no.": 1, "total luciferase, z-score": 2.52}
{"target": "PAX7", "siRNA no.": 2, "total luciferase, z-score": -1}
{"target": "PAX7", "siRNA no.": 3, "total luciferase, z-score": 0.552}
{"target": "LYSMD4", "siRNA no.": 1, "total luciferase, z-score": 0.827}
{"target": "LYSMD4", "siRNA no.": 2, "total luciferase, z-score": -0.143}
{"target": "LYSMD4", "siRNA no.": 3, "total luciferase, z-score": -0.436}
{"target": "ZNF592", "siRNA no.": 1, "total luciferase, z-score": 1.76}
{"target": "ZNF592", "siRNA no.": 2, "total luciferase, z-score": -0.354}
{"target": "ZNF592", "siRNA no.": 3, "total luciferase, z-score": 1}
{"target": "CCNE1", "siRNA no.": 1, "total luciferase, z-score": -0.228}
{"target": "CCNE1", "siRNA no.": 2, "total luciferase, z-score": 2.3}
{"target": "CCNE1", "siRNA no.": 3, "total luciferase, z-score": 0.247}
{"target": "LOC728283 (retired record)", "siRNA no.": 1, "total luciferase, z-score": 1.42}
{"target": "LOC728283 (retired record)", "siRNA no.": 2, "total luciferase, z-score": -1.04}
{"target": "LOC728283 (retired record)", "siRNA no.": 3, "total luciferase, z-score": -1.05}
{"target": "ITSN2", "siRNA no.": 1, "total luciferase, z-score": 0.408}
{"target": "ITSN2", "siRNA no.": 2, "total luciferase, z-score": 0.0918}
{"target": "ITSN2", "siRNA no.": 3, "total luciferase, z-score": -0.916}
